## Primary screen of a compound library

A: 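Growth of Mycobacterium tuberculosis over 4 days (cholesterol / DPPC medium with tyloxapol); the read-out is not stated. Tested at 50 µM. Higher reads as more growth inhibition (inferred: compounds with an IC50 in retests scored well above the rest). Of about 69,000 compounds tested this way, about 370 (0.54%) reached 50% or more in at least one test.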
B: 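Growth of Mycobacterium tuberculosis over 3 days (7H9 medium with glucose and tyloxapol); the read-out is not stated. Tested at 50 µM. Higher reads as more growth inhibition (inferred: compounds with an IC50 in retests scored well above the rest). Size under these conditions: about 69,000 compounds, about 760 of them at 50% or above in at least one test.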

Values are the deposited “Percent Effect”, in %. The controls that fix the scale are not given in the record; negative values are as filed. Compounds were drawn at random from those tested, without regard to their results. Two or more numbers in one place are separate tests of the same structure; such repeats can differ widely.

| # | compound | A | B |
|---|---|---|---|
| 1 | `Cc1ccc(CN(CCN(C)C)C(=O)Nc2ccc(C)c(C#N)c2)s1` | 7.618 and -9.043 | 16.89 |
| 2 | `Cc1ccc(C)c(CN2CCOC(c3noc(C)n3)C2)c1` (stereo not drawn) | 23.85 | 11.24 and 21.55 |
| 3 | `[H][C@]12CN(c3ccccn3)CCN1C[C@@H](c1ccccc1)[C@@H]2CO` | -15.33 | -16.76 |
| 4 | `COc1cc(CNCc2ccnc(N3CCCC3)c2)cc(OC)c1.Cl` | -1.999 | 4.017 |
| 5 | `CC(C)c1noc(C(C)N2CCN(c3ccc(C#N)cn3)CC2)n1` (stereo not drawn) | 13.76 | 19.17 |
| 6 | `Cc1cc(CN(C)C(=O)c2ccc(N(C)C)nc2)no1` | 0.8273 | -27.15 |
| 7 | `O=C(O)C(F)(F)F.O=C(O)C(F)(F)F.O=C(c1ccncc1)N1CCOC2(COCCN(c3cccnc3)C2)C1` (stereo not drawn) | -18.69 | -11.42 |
| 8 | `Cc1cccc(-c2noc(CN3CCCC(Cn4cncn4)C3)n2)c1` (stereo not drawn) | 9.345 | 12.73 |
| 9 | `Cc1nnc(CN(C)C2CCCN(Cc3noc(C4CC4)n3)C2)o1` (stereo not drawn) | -18.77 | -10.96 |
| 10 | `Cc1ccccc1OCCN1CCN(Cc2cnn(CCO)c2)CC1` | 14.78 | 18.61 |
| 11 | `Cc1cccnc1C(Cc1ccsc1)NCc1cnc(N(C)C)nc1` (stereo not drawn) | 9.639 and 13.58 | 3.576 |
| 12 | `O=C(c1ccccn1)N1Cc2ccccc2OC2(CCOCC2)C1` | 9.216 | -0.5597 |
| 13 | `COc1ccc([C@@H]2CN(Cc3ccncc3)C[C@H]2N(C)C)cc1` | 9.074 | 2.822 and -11.57 |
| 14 | `CC(=O)NCc1nnc2n1CCN(c1nc(C)nc3sccc13)CC2` | 9.758 | -7.497 |
| 15 | `CN1CCN(c2cc(CNC(=O)c3cccnc3O)ccn2)CC1` | 7.562 | 22.63 |
| 16 | `CCOC(=O)N1CCN(C(=O)C2CC(=O)N(c3ccccc3Br)C2)CC1` (stereo not drawn) | 55.4 | 59.44 |
| 17 | `NC(=O)c1cc(NC(=O)N2CCCCCC2)ccc1F` | 6.373 and -32.19 | -55.18 |
| 18 | `CCCc1n[nH]c(C2CN(C(=O)CCCn3ccnc3C)CCO2)n1` (stereo not drawn) | -10.94 | 10.61 |
| 19 | `[H][C@@]12CCN(C[C@@H]1CN1CCN(C)CC1)[C@@H](CNC(=O)c1ccco1)C2` | -32.29 | -25.25 and 0.7028 |
| 20 | `O=C(c1cnccn1)N1CCC(Oc2ncccc2Cl)CC1` | 3.884 | 5.962 and 21.66 |
| 21 | `COc1ncccc1C(=O)N1CCCC(c2cc(C)[nH]n2)C1` (stereo not drawn) | -29.37 | -12.99 |
| 22 | `Cc1nc(C)c(Cc2nc(C3CC3)n[nH]2)c(=O)[nH]1` | 10.91 | 6.174 and -7.482 |
| 23 | `O=C(O)C(F)(F)F.[H][C@@]12CCN(Cc3nccs3)[C@]1([H])C[C@@H](C(=O)NCC1CCOCC1)O2` | 0.1232 and -13.37 | -18.86 |
| 24 | `COc1cc(C)cc(C(C(=O)O)N(C)Cc2ccncc2C)c1OC` (stereo not drawn) | -2.423 | 5.942 |
| 25 | `CCc1nc(CN2CCCN(Cc3cnn(C)c3)CC2)no1` | -24.99 | -4.228 and -21.71 |
| 26 | `CS(=O)(=O)CC1(CNc2cc(C#N)c3cc(Cl)ccc3n2)CC1` | 11.71 | 27.91 |
| 27 | `CC(C)Cc1cc(C(=O)N2CCCN(c3cccnn3)CC2)[nH]n1` | -21.41 | -11.57 |
| 28 | `O=c1cc(Cn2cncn2)nc2n1CCCN(CC1CC1)C2` | -30.36 | -32.86 |
| 29 | `Cn1cnc2c1C(COCc1ccccc1)N(Cc1ccncc1)CC2.O=C(O)C(F)(F)F.O=C(O)C(F)(F)F.O=C(O)C(F)(F)F` (stereo not drawn) | 3.311 | 9.083 |
| 30 | `Clc1cccc2c3c([nH]c12)CCN(Cc1cc2n(n1)CCCNC2)C3` | -30.05 | 34.54 |
| 31 | `O=C(O)C(F)(F)F.[H][C@]12CCN(C(=O)C3CCCO3)[C@@]1([H])CCC(=O)N2Cc1cccnc1` (stereo partly drawn) | -10.53 | 12.4 |
| 32 | `CCOc1ccc(CNC(=O)N(C)CC(C)(C)O)cc1C` | 3.459 | 14.65 |
| 33 | `CC(C)n1nnnc1-c1ccc(NC(=O)CCC(F)(F)F)cc1F` | -0.9129 | -22.83 and -1.524 |
| 34 | `CCc1nc(CN2CCC(C(=O)N(C)C)CC2)cs1` | -9.021 | 2.955 |
| 35 | `COC(=O)c1ncccc1N1CCCCC1` | 2.221 | 21.11 |
| 36 | `CCN1CCC(CNC(=O)NCc2cc(-c3ccc(C)cc3)no2)C1` (stereo not drawn) | -6.576 | 18.38 |
| 37 | `[H][C@@]12CCN(Cc3cc(C)on3)C[C@@]1([H])O[C@H](C)C2` | -31.29 | 19.27 |
| 38 | `CC(=O)NC1CCN(c2cc(C3CCNCC3)nc(C)n2)C1` (stereo not drawn) | 3.422 and -0.01993 | 0.1767 and 3.185 |
| 39 | `CC1Cc2ccccc2N1C(=O)Cn1nc(-c2cccs2)cc(N)c1=O` (stereo not drawn) | -3.929 | 4.25 |
| 40 | `CS(=O)(=O)CCCC(=O)Nc1cc(Cl)c(Cl)cn1` | 19.22 | 26.87 |
| 41 | `COCC1Cn2nnc(-c3cnn(C)c3)c2CN1Cc1cccs1.O=C(O)C(F)(F)F` (stereo not drawn) | -6.096 and -4.654 | 14.21 |
| 42 | `CC(NC(=O)N1CCC(OCc2ccccc2)CC1)c1nncn1C` (stereo not drawn) | 15.35 | 15.58 |
| 43 | `CC(C(=O)Nc1ccnn1C(C)C)N1CCc2nn(C)c(=O)cc2C1` (stereo not drawn) | -3.198 | 19.53 |
| 44 | `Cc1cc2n(n1)CC(CNCc1ccc(-n3ccnc3C)nc1)CN2` (stereo not drawn) | -2.856 | 25.15 |
| 45 | `O=C(CCc1ccsc1)Nc1cccnc1N1CCCC1` | -13.51 | 1.116 |
| 46 | `Cc1nc(CN2CCc3nc(NC(C)C)nc(C)c3C2)cs1` | 15.29 | 49.25 and 35.45 |
| 47 | `COCCN1CCN(Cc2ccncc2)c2ncccc2C1.O=C(O)C(F)(F)F.O=C(O)C(F)(F)F.O=C(O)C(F)(F)F` | -11.8 and -5.51 | -11.85 |
| 48 | `CCO[C@@H]1CCN(C(=O)c2ccc[nH]2)[C@@H]1Cc1cnn(C)c1` | -0.3904 | -0.9662 |
| 49 | `CN(CCc1ccncc1)C(=O)C1CSCN1C(=O)C(C)(C)C` (stereo not drawn) | -19.28 | -24.48 and -6.049 |
| 50 | `[H][C@]12CC[C@@]3(N=C(CC)N(CC)C3=O)[C@@]1([H])CN(S(=O)(=O)CC)C2` | 2.426 and -13.85 | -6.405 and -31.49 |
| 51 | `COCCOc1ccc(Cl)c(C(=O)N2CCN(CCO)CC2)n1` | -23.98 | -12.14 |
| 52 | `O=C(O)C(F)(F)F.[H][C@@]12CCN(Cc3ccc(C)o3)C[C@]1(C(=O)N1CCCO1)CCO2` | -16.18 | -21.05 |
| 53 | `Cc1cnnn1Cc1nnn2c1CN(Cc1cccs1)CCC2.O=C(O)C(F)(F)F` | 6.007 | -6.005 and -3.01 |
| 54 | `CN(CC1CCOCC1)C1CCCN(c2ccccn2)C1` (stereo not drawn) | 1.587 and 5.201 | -1.953 |
| 55 | `Cc1nc(C)n(CC2CCCN2Cc2cn3cc(Cl)ccc3n2)n1` (stereo not drawn) | 8.684 | 6.507 |
| 56 | `N#Cc1cccc(OCCN2CCNC(=O)C2c2cccs2)c1` (stereo not drawn) | -32.92 | -32.52 |
| 57 | `Cc1nc(N)cc(C2CCN2CCC(N)=O)n1` (stereo not drawn) | -17.81 | 21.53 |
| 58 | `O=C(O)C(F)(F)F.[H][C@@]12CCCO[C@]1([H])[C@H](N(C)Cc1ccco1)CN(C(=O)COC)C2` | -14.78 | -25.48 |
| 59 | `CN1CCOC(CNC(=O)C2(c3ccccc3)CCC2)C1` (stereo not drawn) | -4.151 | -4.029 |
| 60 | `Cc1nn(-c2ccccc2)cc1C(=O)N1CCCC(n2ccnc2)C1` (stereo not drawn) | 14.11 | 29.86 |
| 61 | `CCOc1cccnc1C(=O)N1CC=C(c2ccc(O)cc2)CC1` | 0.7668 | -11.05 |
| 62 | `Cc1cc(C)n(-c2ccc(C(=O)NCC(CO)Cc3ccco3)cc2)n1` (stereo not drawn) | 0.4725 | 10.37 and -2.031 |
| 63 | `Cc1nc(O)ccc1C(=O)NCc1ncccc1F` | -5.505 | -0.6563 |
| 64 | `O=C1CC2(CCSC2)C(=O)N1Cc1coc(-c2ccc(F)cc2)n1` (stereo not drawn) | 10.23 | 9.937 |
| 65 | `[H][C@@]12CCCO[C@]1([H])[C@H](OCc1cccnc1)CN2C(=O)c1ccncc1` | -11.99 | -3.931 |
| 66 | `O=C(O)C(F)(F)F.[H][C@@]12CCN(Cc3ccc(F)cc3)C[C@]1(C(=O)N1CCCO1)CCO2` | -32.22 | 8.56 |
| 67 | `CN1CCCn2c(nc(CNC(=O)c3nccn3C)cc2=O)C1.O=C(O)C(F)(F)F.O=C(O)C(F)(F)F` | -15.02 | -4.357 and -12.5 |
| 68 | `CC(=O)N1CCCC(c2ccnc(N(C)C)n2)C1` (stereo not drawn) | -14.56 | -19.46 |
| 69 | `N#Cc1cccc(SCCS(N)(=O)=O)c1` | -2.791 | -5.949 and 11.2 |
| 70 | `CCNCc1ccc(OCc2ccc3c(c2)OCCO3)cc1.Cl` | -42.08 | -63.36 |
| 71 | `Cc1ncsc1CCN1CCC(N(C)Cc2noc(C(C)C)n2)C1` (stereo not drawn) | -15.19 | -4.565 and 15.68 |
| 72 | `O=C(C1CC(c2cccc(F)c2)=NO1)N1CCc2ccccc21` (stereo not drawn) | 15.42 | 15.05 |
| 73 | `Cc1ccc(C(CNC(=O)c2cc(=O)c3ccccc3[nH]2)N(C)C)cc1` (stereo not drawn) | -0.8921 | -10.66 |
| 74 | `C1CN(CC2CCOCC2)Cc2c(CN3CCOCC3)nnn2C1` | -4.695 | -1.25 and 28.65 |
| 75 | `CN(C)CCNc1ccc(-c2nc(-c3ccccc3F)no2)cn1` | 41.52 | 56.49 |
| 76 | `CN(C)CCNC(=O)c1cc2n(n1)CCN(C(=O)c1ccc[nH]1)C2` | 11.7 and -6.185 | 39.32 |
| 77 | `CCC(CNC(=O)Cn1ccnc1)Oc1cccc(F)c1` (stereo not drawn) | -22.32 | -10.47 and 0.1328 |
| 78 | `NC(=O)CN1CCC(C(=O)NCc2ccc3nonc3c2)CC1` | -5.557 | -26.99 |
| 79 | `FC(F)(F)c1cc(C2CCCN(Cc3cccnc3)C2)n[nH]1` (stereo not drawn) | 5.054 | 17.47 and 8.143 |
| 80 | `NC(=O)NC(=O)C(c1ccccc1)N1CCN(Cc2ccsc2)CC1` (stereo not drawn) | -17.38 | -14.1 |
| 81 | `Cc1ccc(CN(C)C(=O)CN2CCCC(Cn3cncn3)C2)o1` (stereo not drawn) | 1.939 | -2.837 |
| 82 | `Cc1ccn(CCC(=O)NC(C)Cc2ccco2)n1` (stereo not drawn) | -3.728 | 21.2 |
| 83 | `Cc1noc(C)c1CCCNC(=O)Nc1ccc2c(c1)COC2` | -16.14 | -3.315 and -6.807 |

Repeated from the top, 7 entries:

* Cc1ccc(CN(CCN(C)C)C(=O)Nc2ccc(C)c(C#N)c2)s1 | A: 7.618% and -9.043%; B: 16.89%
* Cc1ccc(C)c(CN2CCOC(c3noc(C)n3)C2)c1 (stereo not drawn) | A: 23.85%; B: 11.24% and 21.55%
* [H][C@]12CN(c3ccccn3)CCN1C[C@@H](c1ccccc1)[C@@H]2CO | A: -15.33%; B: -16.76%
* COc1cc(CNCc2ccnc(N3CCCC3)c2)cc(OC)c1.Cl | A: -1.999%; B: 4.017%
* CC(C)c1noc(C(C)N2CCN(c3ccc(C#N)cn3)CC2)n1 (stereo not drawn) | A: 13.76%; B: 19.17%
* Cc1cc(CN(C)C(=O)c2ccc(N(C)C)nc2)no1 | A: 0.8273%; B: -27.15%
* O=C(O)C(F)(F)F.O=C(O)C(F)(F)F.O=C(c1ccncc1)N1CCOC2(COCCN(c3cccnc3)C2)C1 (stereo not drawn) | A: -18.69%; B: -11.42%

Measurements from “University of Dundee, Small-Polar-MMV Screening Library” (2021), ChEMBL document CHEMBL3988442.